Assay results: the supplement of paper PMC9938120

Columns and labels:
Assay in all cases: drug sensitivity score (DSS3, normalised partial AUC of % inhibition dose-response) (DSS (score)); higher = more sensitive (stronger inhibition of viability); extreme values may be limits of the assay
Conditions in all cases: 72 h; library: FO5A; assay format: 2D, 384-well, CellTiter-Glo
FMOC27 = tested on: FMOC27 (patient-derived low-grade serous ovarian cancer cells)
Method in brief: (§1)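 Cells were dispensed onto 384-well flat clear-bottom plates already holding compounds at five concentrations over a 10,000-fold range, using patient-derived ovarian cancer cells at passage under 10. Incubation lasted 72 h at 37 °C in 5% CO2, after which CellTiter-Glo viability data were processed in Breeze. Higher drug sensitivity scores, each a partial area under the percent-inhibition dose-response curve divided by the log of the upper asymptote, mean more sensitive cells.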

FMOC06 = tested on: FMOC06 (patient-derived mucinous ovarian cancer cells)
Method in brief: as §1

FMOC03 = tested on: FMOC03 (patient-derived mucinous ovarian cancer cells)
Method in brief: as §1

FMOC25_2 = tested on: FMOC25_2 (patient-derived low-grade serous ovarian cancer cells)
Method in brief: as §1

FMOC04 = tested on: FMOC04 (patient-derived high-grade serous ovarian cancer cells)
Method in brief: as §1

FMOC17 = tested on: FMOC17 (patient-derived low-grade serous ovarian cancer cells)
Method in brief: as §1

FMOC09 = tested on: FMOC09 (patient-derived high-grade serous ovarian cancer cells)
Method in brief: as §1

FMOC14 = tested on: FMOC14 (patient-derived high-grade serous ovarian cancer cells)
Method in brief: as §1

FMOC02_3 = tested on: FMOC02_3 (patient-derived low-grade serous ovarian cancer cells)
Method in brief: as §1

FMOC22 = tested on: FMOC22 (patient-derived mucinous ovarian cancer cells)
Method in brief: as §1

FMOC11 = tested on: FMOC11 (patient-derived high-grade serous ovarian cancer cells)
Method in brief: as §1

FMOC28 = tested on: FMOC28 (patient-derived low-grade serous ovarian cancer cells)
Method in brief: as §1

FMOC02_1 = tested on: FMOC02_1 (patient-derived low-grade serous ovarian cancer cells)
Method in brief: as §1

FMOC24 = tested on: FMOC24 (patient-derived high-grade serous ovarian cancer cells)
Method in brief: as §1

C[C@@H]1C[C@H](N)C[C@H](c2ccncc2NC(=O)c2ccc(F)c(-c3c(F)cccc3F)n2)C1 [PIM-447]
drug sensitivity score (FMOC27): 0
drug sensitivity score (FMOC06): 3.8
drug sensitivity score (FMOC03): 0.2
drug sensitivity score (FMOC25_2): 5.6
drug sensitivity score (FMOC04): 0
drug sensitivity score (FMOC17): 4.8
drug sensitivity score (FMOC09): 0.8
drug sensitivity score (FMOC14): 1.5
drug sensitivity score (FMOC02_3): 6
drug sensitivity score (FMOC22): 1
drug sensitivity score (FMOC11): 1.9
drug sensitivity score (FMOC28): 6.1
drug sensitivity score (FMOC02_1): 4.9
drug sensitivity score (FMOC24): 6
